Test results reported in PubChem BioAssay AID504467 (National Center for Advancing Translational Sciences (NCATS), 2011).
The campaign covered roughly 330,000 compounds. About 7,700 (2.3%) were called active. The inconclusive results got no clear call from the source; some entries with a clear call stand among them for comparison. Calls come from the whole dose curve; as a rule, active = well fitted inhibition curve with a large enough effect; inconclusive = small, poorly fitted or top-dose-only effect, or effect the other way; inactive = flat fitted curve, though single readings scatter. Potencies beside an inconclusive call are fits to weak or partial responses and may not hold up.

Test: qHTS screen for small molecules that inhibit ELG1-dependent DNA repair in human embryonic kidney (HEK293T) cells expressing luciferase-tagged ELG1; note: nearly all actives have a fitted effect of over 55% in size
Conditions: HEK293T ELG1-luciferase reporter, luminescence, 16 h, DNA damage induced by 5-fluorouridine; activity change, negative = inhibition: at 46.1 µM (top of the series)
Outline: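 In this reporter screen, reduction of luminescence relative to DMSO vehicle indicated activity. Compounds and 5-fluorouridine were added together to 2,000 cells per well, incubated for 16 hr at 37 °C, then developed with ONE-Glo.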
% is set by controls: 0 for no effect and ±100 for the full control effect; potency is the fitted concentration of half-maximal effect.

Row | SMILES | Potency | activity change, negative = inhibition
1 | Cc1cc(Br)ccc1NC(=O)CN(C)C(=O)c1ccc2ccccc2n1 | inconclusive: 23.1 µM [activator, partial curve, poor fit] | –
2 | CC(CC(=O)N1CCc2ccccc21)n1cccn1 (stereo not drawn) | inconclusive: 10.3 µM [activator, partial curve, poor fit] | –
3 | O=C(CC1SC(=Nc2ccccc2F)N(CCN2CCOCC2)C1=O)Nc1ccc(F)cc1F (stereo not drawn) | inconclusive: 29.1 µM [inhibitor, single point] | –
4 | Cn1ccnc1SCC(=O)Nc1nc2ccccc2s1 | inconclusive: 20.6 µM [activator, partial curve] | –
5 | Cc1ccccc1C(=O)N1CCN(c2ccc(NC(=O)Cc3ccccc3)cc2)CC1 | active: 18.3 µM | –
6 | COc1ccc(CNC(=O)c2cccc(S(=O)(=O)N3CCN(c4ccc(F)cc4)CC3)c2)cc1 | active: 3.26 µM | –
7 | CC(=O)N1CCN(C(=O)c2cccc(S(=O)(=O)N3CCOCC3)c2)CC1 | inconclusive: 18.3 µM [activator, partial curve, poor fit] | –
8 | Cc1nnc(SCC(=O)NC2CCCC2)n1-c1ccccc1 | – | inactive: 16.6%
9 | CC1CCN(CCCCOc2ccc(C(=O)c3ccccc3)cc2)CC1 | inconclusive: 4.11 µM [inhibitor, partial curve, poor fit] | –
10 | O=C(C1CCC(CNc2nc(=S)[nH]c3ccccc23)CC1)N1CCN(c2ccc(F)cc2)CC1 (stereo not drawn) | active: 23.1 µM | –
11 | COc1ccc(N(CC(=O)NCc2ccccc2)S(=O)(=O)c2c(C)n[nH]c2C)cc1 | – | inactive: 11.6%
12 | COc1cc(/C=N/NC(=O)CCN2CCN(c3ccccc3)CC2)cc(OC)c1OC | inconclusive: 20.6 µM [inhibitor, partial curve] | –
13 | Cc1[nH]c2ccccc2c1C(=O)COC(=O)c1ccc([N+](=O)[O-])s1 | – | inactive: -21.7%
14 | CCc1nnc(NC(=O)CCC(=O)N2CCN(Cc3ccc(Cl)cc3)CC2)s1 | inconclusive: 13 µM [inhibitor, partial curve] | –
15 | Cc1cc(OCC(=O)N2CCCC2)ccc1Cl | inconclusive: 10 µM [activator, partial curve] | –
16 | C#CCN(Cc1ccco1)C(=O)c1cc(COc2ccc(F)cc2Cl)on1 | inconclusive: 5.8 µM [inhibitor, single point] | –
17 | Cc1csc2c(N3CCN(C(=S)Nc4ccc(C(F)(F)F)cc4)CC3)ncnc12 | inconclusive: 29.1 µM [inhibitor, single point] | –
18 | CC(C)(C)C1CCC(C(=O)OCC(=O)c2ccc[nH]2)CC1 (stereo not drawn) | – | inactive: 10.4%
19 | O=C(CCCc1c[nH]c2ccccc12)Nc1ncccc1O | – | inactive: -17.7%
20 | Cc1cc2nc(-c3cccc(NC(=O)c4ccc(Br)o4)c3C)oc2cc1C | inconclusive: 16.4 µM [activator, single point] | –
21 | CC(C)OCCCNc1nc(-c2ccccc2)nc2ccccc12 | inconclusive: 20.6 µM [inhibitor, single point] | –
22 | COc1ccc(-c2cc(C(=O)N3CCOCC3)no2)cc1 | inconclusive: 1.83 µM [activator, full curve] | –

Row | SMILES | Potency | activity change, negative = inhibition
23 | COC(=O)CC1COc2ccccc2N1C(=O)/C=C/c1ccccc1 (stereo not drawn) | inconclusive: 7.3 µM [inhibitor, partial curve, poor fit] | –
24 | COc1cc(S(=O)(=O)NCc2cccnc2)c(OC)cc1Br | – | inactive: -0.95%
25 | Cc1ccc(-c2nc(CN(C)C3CCOC3)c(C)o2)s1 (stereo not drawn) | inconclusive: 16.4 µM [activator, partial curve] | –
26 | Cc1ccc(C(=O)O/N=C(\N)c2ccccn2)cc1C | inconclusive: 0.651 µM [activator, partial curve] | –
27 | CN(C(=O)c1ccc(NC(=O)Cc2cccc(NC(=O)C3CCN(C(=O)CCc4ccccc4)CC3)c2)cc1)C1CCCC1 | inconclusive: 20.6 µM [inhibitor, single point] | –
28 | COc1ccc2[nH]c3nc(SCc4nnc(-c5ccccc5)o4)nnc3c2c1 | active: 16.4 µM | –
29 | COc1ccc(OC)c(NC(=O)CSc2nncc3ccc(OC)c(OC)c23)c1 | active: 20.6 µM | –
30 | COc1cc(/C=C2\SC(=S)N(CC(=O)Nc3ccccn3)C2=O)cc(OC)c1OC | inconclusive: 23.1 µM [inhibitor, single point] | –
31 | CCC1(CC)Cc2ccccc2C2=C(C(=O)N3CCCCC3)C(=O)C(=O)N21 | inconclusive: 14.6 µM [activator, partial curve, poor fit] | –
32 | COc1ccc(-c2[nH]c(-c3cccc(OC)c3)nc2SCC(=O)NCc2ccco2)cc1 | inconclusive: 13 µM [inhibitor, partial curve, poor fit] | –
33 | Cc1ccc(S(=O)(=O)N2CCCCC2CCNC(=O)C(=O)NCc2ccccc2C)cc1 (stereo not drawn) | inconclusive: 20.6 µM [inhibitor, partial curve] | –
34 | O=C(O)C1CCCN1C(=O)OCC1c2ccccc2-c2ccccc21 (stereo not drawn) | inconclusive: 14.6 µM [activator, partial curve, poor fit] | –
35 | O=c1c([N+](=O)[O-])cccn1Cc1cccc(Br)c1 | – | inactive: -0.306%
36 | O=C(CC1SC(=O)N(c2ccccc2)C1=O)Nc1ccccc1 (stereo not drawn) | – | inactive: 16.9%
37 | CC(=C/c1ccccc1)/C=N/NC(=O)c1cccs1 | inconclusive: 2.59 µM [activator, partial curve] | –
38 | CC1CCCN(c2ccc(C(=O)NCc3ccccc3)cn2)C1 (stereo not drawn) | inconclusive: 7.3 µM [activator, partial curve] | –
39 | Cc1ccc(-c2csc(N3CCN(CCCn4c(-c5ccncc5)nc5ccccc54)CC3)n2)cc1 | inconclusive: 7.3 µM [inhibitor, single point] | –
40 | CC(=O)Nc1ccc(Nc2ccc3nonc3c2[N+](=O)[O-])cc1 | inconclusive: 1.3 µM [activator, full curve] | –
41 | COc1ccc(CN2C(=O)C(C)Nc3ncnc(N4CCOCC4)c32)cc1 (stereo not drawn) | inconclusive: 18.3 µM [activator, partial curve, poor fit] | –
42 | O=C(c1ccc(CS(=O)Cc2ccc(Cl)cc2)o1)N1CCN(c2ccccc2)CC1 (stereo not drawn) | inconclusive: 10.3 µM [inhibitor, partial curve, poor fit] | –
43 | O=S(=O)(NCC(c1ccco1)N1CCN(c2ccccc2F)CC1)c1ccc2c(c1)OCCO2 (stereo not drawn) | active: 16.4 µM | –

A run of entries from the list above, for reference:
Row | SMILES | Potency | activity change, negative = inhibition
30 | COc1cc(/C=C2\SC(=S)N(CC(=O)Nc3ccccn3)C2=O)cc(OC)c1OC | inconclusive: 23.1 µM [inhibitor, single point] | –
31 | CCC1(CC)Cc2ccccc2C2=C(C(=O)N3CCCCC3)C(=O)C(=O)N21 | inconclusive: 14.6 µM [activator, partial curve, poor fit] | –
